Laboratory results reported in publication PMC4024641.
Results are given in words; binding and its absence hold for the method and conditions named. Binding seen in cells or lysates may run through a third protein. A yes stands for co-enrichment or nearness to the bait. Other partners may have been found. No binding means not detected with the bait. Sequences can lack the tags named with a protein.

Protein sequences, listed by entry. Tags and fused reporters are not part of them.
UniProt O60016: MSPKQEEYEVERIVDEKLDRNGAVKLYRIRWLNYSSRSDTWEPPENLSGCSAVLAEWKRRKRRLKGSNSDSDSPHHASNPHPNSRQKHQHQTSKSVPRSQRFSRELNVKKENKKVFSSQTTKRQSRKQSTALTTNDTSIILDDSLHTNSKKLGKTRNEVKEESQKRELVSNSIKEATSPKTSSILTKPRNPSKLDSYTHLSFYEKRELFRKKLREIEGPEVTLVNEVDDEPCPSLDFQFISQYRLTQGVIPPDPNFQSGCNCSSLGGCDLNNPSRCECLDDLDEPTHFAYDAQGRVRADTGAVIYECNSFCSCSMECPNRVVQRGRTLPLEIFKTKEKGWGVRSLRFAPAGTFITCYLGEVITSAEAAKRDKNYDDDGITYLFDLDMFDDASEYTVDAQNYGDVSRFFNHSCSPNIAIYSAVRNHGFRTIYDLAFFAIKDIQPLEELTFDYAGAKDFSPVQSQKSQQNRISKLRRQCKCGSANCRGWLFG

Target: T1, Red1-3×FLAG (S. pombe) (UniProt Q9UTR8)
T1 sequence: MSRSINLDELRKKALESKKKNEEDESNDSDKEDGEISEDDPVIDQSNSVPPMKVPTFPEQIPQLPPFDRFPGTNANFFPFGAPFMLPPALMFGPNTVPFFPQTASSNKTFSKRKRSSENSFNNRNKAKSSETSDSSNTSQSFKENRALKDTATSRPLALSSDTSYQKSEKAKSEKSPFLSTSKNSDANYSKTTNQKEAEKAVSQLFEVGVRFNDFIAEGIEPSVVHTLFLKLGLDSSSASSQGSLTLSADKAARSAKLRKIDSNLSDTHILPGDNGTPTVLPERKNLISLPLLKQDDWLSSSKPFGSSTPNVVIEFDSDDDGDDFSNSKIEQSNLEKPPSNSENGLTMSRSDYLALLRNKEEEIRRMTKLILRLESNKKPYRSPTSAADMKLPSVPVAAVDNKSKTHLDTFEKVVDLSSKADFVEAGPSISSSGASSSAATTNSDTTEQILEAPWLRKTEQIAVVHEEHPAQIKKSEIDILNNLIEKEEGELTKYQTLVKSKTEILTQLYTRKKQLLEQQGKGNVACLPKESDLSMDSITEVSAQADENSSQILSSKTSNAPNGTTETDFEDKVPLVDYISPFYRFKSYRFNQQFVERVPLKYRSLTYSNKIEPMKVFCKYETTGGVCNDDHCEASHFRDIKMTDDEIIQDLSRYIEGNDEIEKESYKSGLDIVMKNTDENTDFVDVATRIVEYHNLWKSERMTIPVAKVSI
Test: affinity purification with mass spectrometry; 3×FLAG- or 13×myc-tagged bait purified from S. pombe cell extract on α-FLAG (M2) or α-myc (9E10) antibody cross-linked to Protein G Dynabeads, 4°C for 3 h, IP buffer (20 mM HEPES pH 7.5, 100 mM NaCl, 5 mM MgCl2, 1 mM EDTA, 10% glycerol, 0.25% Triton X-100, 0.5 mM DTT); LC-MS/MS; Red1-3×FLAG also from iss10Δ, rmn1Δ and Mtl1 knockdown cells

Q: Clr4 (from UniProt O60016 1-490) was tested. Which binding did it give?
A: no binding
